Data taken from PMC7917814.
Tags and fusion partners may be left off the protein sequences shown. For part of these data: Construct, isoform or probe ends are uncertain for at least one entry. For part of these data: At least one verdict rests on a figure or table, not on a statement of the authors.

Assays:
[1] = system: T1, RslR4 (MarR family) (Streptomyces bottropensis); test: competition with a labelled probe; conditions: 100 nM protein, 10-250x unlabeled rslR4-T4 competes; EMSA: 20 mM Tris-HCl pH 7.9, 100 mM KCl, 10 mM MgCl2, 1 mM EDTA, 1 mM DTT, 12.5% glycerol, 1 ug poly(dI-dC), 4.5 ug BSA, 28 C, 15 min (25 min for RslR3DBD); recombinant protein; residues 1-171; protein details: C-terminal His tag (pET28a); label: 5'-33P; probe letters rebuilt from the primers and the genome
T1 sequence (looked up): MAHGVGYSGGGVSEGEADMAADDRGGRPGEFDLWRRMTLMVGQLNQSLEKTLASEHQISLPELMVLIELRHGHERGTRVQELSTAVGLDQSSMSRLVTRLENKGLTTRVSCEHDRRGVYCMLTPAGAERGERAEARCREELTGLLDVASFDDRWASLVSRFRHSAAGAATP

[2] = system: T1, RslR4 (MarR family) (Streptomyces bottropensis); test: EMSA; conditions: EMSA: 20 mM Tris-HCl pH 7.9, 100 mM KCl, 10 mM MgCl2, 1 mM EDTA, 1 mM DTT, 12.5% glycerol, 1 ug poly(dI-dC), 4.5 ug BSA, 28 C, 15 min (25 min for RslR3DBD), recombinant protein, residues 1-171, protein details: C-terminal His tag (pET28a), label: 5'-33P, probe letters rebuilt from the primers and the genome

Measured: binding result

GCATGGTACCTGGAGCGGTCTGCGAGGGGTCGGGTGTCGTATCGGGTGCCGTGGACGATTCGGGAGTTCCGCGTGTCATGCGTACCGCCTGGGGTCGATGCAGTCGGGGACGGGCGCGGAACGACGCCGCGCTCTGTGCGTCCCTCACCCTACGAGTAAATGCAGGCGCCTGCATCTAATTTTCGGACAGATCTCTGTCTGCCTTGCTGATGGCCGGTCCAATGGGGCAGGCTGTGAGGGAAAGCGCTTGAAAAATGCATGCATAGACATGGTTTATGCATGGAGTTGGTTATAGTGGAGGGGGAGTGAGCGAAGGGGAGGCGGACATGGCGGCCGATGACCGTGGAGGGCGTCCCGGTGAGTTCGACCTGTGGCGTCGGATGACGCTGATGGTCGGTCAGCTCAACCAGTCGCTGGAGAAGACGCTCGCGAGCGAGCATCAGATCTCCCTGCCCGAGCTGATGGTGCTGATCGAGCTGCGGCACGGTCACGAACGCGGCACCCGGGTGCAGGAGCTGTCCACCGTCTAGATAGC (double strand) [rslR4-T4 intergenic region]
binds: [1] | [2]; galvaquinone A (no ligand effect), 100 nM protein | [2]; several retarded complexes
